From paper PMC5805695
Results are given in words; binding and its absence hold for the method and conditions named. In cells and extracts the contact can be indirect.

Sequences of proteins named here, by UniProt entry; tags and fusion partners are left off.
UniProt Q9Y7M4: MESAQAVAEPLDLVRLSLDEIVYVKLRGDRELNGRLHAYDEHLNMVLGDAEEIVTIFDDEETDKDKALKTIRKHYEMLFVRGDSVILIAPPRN

Target: T1, Pof8-∆[289–402] (C-terminal truncation removing the entire xRRM domain) (S. pombe) (UniProt O13795)
T1 sequence: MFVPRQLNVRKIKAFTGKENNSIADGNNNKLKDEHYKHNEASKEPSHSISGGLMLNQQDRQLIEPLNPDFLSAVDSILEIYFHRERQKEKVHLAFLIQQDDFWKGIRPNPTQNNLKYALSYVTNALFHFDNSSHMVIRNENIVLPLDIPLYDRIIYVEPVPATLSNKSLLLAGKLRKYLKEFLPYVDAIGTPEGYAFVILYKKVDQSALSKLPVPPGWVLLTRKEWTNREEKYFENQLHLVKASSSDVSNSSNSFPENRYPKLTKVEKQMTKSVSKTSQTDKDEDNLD
Assay: co-IP; S. pombe cell lysates (50 mM Tris pH 8.0, 150 mM NaCl, 10% glycerol, 5 mM EDTA, 0.5% NP-40); immunoprecipitation with monoclonal anti-myc 9B11 and Dynabeads Protein G; western blot with anti-myc or anti-V5/PK; also mock treatment without RNase A

Q: For “Lsm3 (subunit of the Lsm2-8 complex) (from UniProt Q9Y7M4 1-93)”, which binding is on record?
A: The binding was “no binding”.
